Experimental data taken from patent publication US20250066422A1.

Target: HLA-A*0201 (human)
Assay: UV-ligand exchange, streptavidin/anti-b2m sandwich ELISA

Q: FQYDHEAFL [RCN1-001] was tested. Which binding did it give?
A: Its binding is “binds”.

Q: For SLHFLILYV [ATP-001], which binding is on record?
A: The binding was “binds”.

Q: How did the binding turn out when SLLESNKDLLL [SLC3A2-001] was run?
A: The binding was “binds”.

Q: For YVYQNNIYL [FAP-003], which binding is on record?
A: The binding was “binds”.

Q: SMSGYDQVL [HNRNPH-001] was tested. Which binding did it give?
A: Its binding is “binds”.

Q: How did the binding turn out when YLIHFPVSV [AKR-001] was run?
A: Its binding is “binds”.

Q: How did the binding turn out when AIMGFIGFFV [SEC61G-001] was run?
A: Its binding is “binds”.

Results are given in words; binding and its absence hold for the method and conditions named. Binding calls can cover weak binding; strength is not graded here.
